According to article PMC9273970, “Mambalgin-2 Inhibits Lung Adenocarcinoma Growth and Migration by Selective Interaction With ASIC1/α-ENaC/γ-ENaC Heterotrimer” (Frontiers in Oncology, 2022):
These are yes or no findings as the source states them, for the method shown. In cells and extracts the contact can be indirect. Some entries that bind do so weakly or less than the wild type.

T1: recombinant mambalgin-2 from Dendroaspis polylepis (Dendroaspis polylepis) (UniProt P0DKS3)
T1 sequence: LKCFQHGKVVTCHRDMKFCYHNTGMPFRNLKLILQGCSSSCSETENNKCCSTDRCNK

B1: α-ENaC subunit (epithelial Na+ channel alpha) (protein, UniProt P37088 1-669)
chain: MEGNKLEEQDSSPPQSTPGLMKGNKREEQGLGPEPAAPQQPTAEEEALIEFHRSYRELFEFFCNNTTIHGAIRLVCSQHNRMKTAFWAVLWLCTFGMMYWQFGLLFGEYFSYPVSLNINLNSDKLVFPAVTICTLNPYRYPEIKEELEELDRITEQTLFDLYKYSSFTTLVAGSRSRRDLRGTLPHPLQRLRVPPPPHGARRARSVASSLRDNNPQVDWKDWKIGFQLCNQNKSDCFYQTYSSGVDAVREWYRFHYINILSRLPETLPSLEEDTLGNFIFACRFNQVSCNQANYSHFHHPMYGNCYTFNDKNNSNLWMSSMPGINNGLSLMLRAEQNDFIPLLSTVTGARVMVHGQDEPAFMDDGGFNLRPGVETSISMRKETLDRLGGDYGDCTKNGSDVPVENLYPSKYTQQVCIHSCFQESMIKECGCAYIFYPRPQNVEYCDYRKHSSWGYCYYKLQVDFSSDHLGCFTKCRKPCSVTSYQLSAGYSRWPSVTSQEWVFQMLSRQNNYTVNNKRNGVAKVNIFFKELNYKTNSESPSVTMVTLLSNLGSQWSLWFGSSVLSVVEMAELVFDLLVIMFLMLLRRFRSRYWSPGRGGRGAQEVASTLASSPPSHFCPHPMSLSLSQPGPAPSPALTAPPPAYATLGPRPSPGGSAGASSSTCPLGGP
B2: γ-ENaC subunit (epithelial Na+ channel gamma) (protein, UniProt P51170 1-649)
chain: MAPGEKIKAKIKKNLPVTGPQAPTIKELMRWYCLNTNTHGCRRIVVSRGRLRRLLWIGFTLTAVALILWQCALLVFSFYTVSVSIKVHFRKLDFPAVTICNINPYKYSTVRHLLADLEQETREALKSLYGFPESRKRREAESWNSVSEGKQPRFSHRIPLLIFDQDEKGKARDFFTGRKRKVGGSIIHKASNVMHIESKQVVGFQLCSNDTSDCATYTFSSGINAIQEWYKLHYMNIMAQVPLEKKINMSYSAEELLVTCFFDGVSCDARNFTLFHHPMHGNCYTFNNRENETILSTSMGGSEYGLQVILYINEEEYNPFLVSSTGAKVIIHRQDEYPFVEDVGTEIETAMVTSIGMHLTESFKLSEPYSQCTEDGSDVPIRNIYNAAYSLQICLHSCFQTKMVEKCGCAQYSQPLPPAANYCNYQQHPNWMYCYYQLHRAFVQEELGCQSVCKEACSFKEWTLTTSLAQWPSVVSEKWLLPVLTWDQGRQVNKKLNKTDLAKLLIFYKDLNQRSIMESPANSIEMLLSNFGGQLGLWMSCSVVCVIEIIEVFFIDFFSIIARRQWQKAKEWWAWKQAPPCPEAPRSPQGQDNPALDIDDDLPTFNSALHLPPALGTQVPGTPPPKYNTLRLERAFSNQLTDTQMLDEL

Target: T1, recombinant mambalgin-2 from Dendroaspis polylepis (Dendroaspis polylepis)
Test: pull-down; mambalgin-2 (1 mg/ml) coupled to NHS-activated Sepharose 4 Fast Flow; membrane fraction of A549 cells solubilized in 2% Triton X-100, diluted 10 times with TBS pH 8.0, 16 h at 4°C; washes incl. TBS + 1 M NaCl + 0.5% Triton X-100; elution 200 mM glycine pH 2.6; Western blot; only the target purified

Binder	binding
B1	binds
B2	binds
